Reference: the supplement of paper PMC4604168 (melanoma cell lines)
The other results are listed elsewhere or left out. Many values rest on one well or one pass, so single values are uncertain.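 Cells were imaged in 1,536-well plates, and nuclei stained with an antibody against cleaved PARP were counted against all DNA-stained nuclei to give the apoptosis fraction. Screening doses were chosen to leave most cells alive, and resting and induced cleaved-PARP levels differ strongly between cell lines.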

Assays:
Assay in all cases: cleaved PARP positive nuclei fraction relative to DMSO control; melanoma cells; higher = more apoptosis
Conditions in all cases: library dose: low library concentration; 72 h
[1] = tested on: CBRC034 (line from a melanoma biopsy)
[2] = tested on: COLO792
[3] = tested on: COLO800
[4] = tested on: COLO829
[5] = tested on: G361
[6] = tested on: IPC-298
[7] = tested on: IST-MEL1
[8] = tested on: LB2518-MEL
[9] = tested on: LOXIMVI
[10] = tested on: MEL-HO

Row | SMILES | cleaved PARP positive nuclei fraction [1] | cleaved PARP positive nuclei fraction [2] | cleaved PARP positive nuclei fraction [3] | cleaved PARP positive nuclei fraction [4] | cleaved PARP positive nuclei fraction [5] | cleaved PARP positive nuclei fraction [6] | cleaved PARP positive nuclei fraction [7] | cleaved PARP positive nuclei fraction [8] | cleaved PARP positive nuclei fraction [9] | cleaved PARP positive nuclei fraction [10]
1 | NC(=O)c1ccc(N(C(N)=O)c2c(F)cccc2F)nc1-c1ccc(F)cc1F + CNC(=O)c1cc(Oc2ccc(NC(=O)Nc3ccc(Cl)c(C(F)(F)F)c3)cc2)ccn1 [sorafenib] (first compound 0.4 µM, partner dose 0.4 µM) | 128% | 83.4% | 87.2% | 105% | 40.5% | 94.1% | 128% | 77.5% | 68.2% | 65.3%
2 | COc1ccc(C2=N[C@@H](c3ccc(Cl)cc3)[C@@H](c3ccc(Cl)cc3)N2C(=O)N2CCNC(=O)C2)c(OC(C)C)c1 [Nutlin-3] + CS(=O)(=O)CCNCc1ccc(-c2ccc3ncnc(Nc4ccc(OCc5cccc(F)c5)c(Cl)c4)c3c2)o1 [lapatinib] (first compound 0.1 µM, partner dose 0.8 µM) | 133% | 126% | 60.6% | 46.9% | 101% | 91.7% | 138% | 53.7% | 35.3% | 37.4%
3 | CCN(CC)CCNC(=O)c1c(C)[nH]c(/C=C2\C(=O)Nc3ccc(F)cc32)c1C [sunitinib] + O=C(O)[C@@H]1[O][Sb](=[O])([O][Sb]2(=[O])[O][C@H]([C@H](O)CO)[C@H](O)[C@H](C(=O)O)[O]2)[O][C@H]([C@H](O)CO)[C@@H]1O [stibogluconate] (first compound 0.4 µM, partner dose 2 µM) | 64.2% | 63.4% | 84.9% | 54.8% | 183% | 58.8% | 59.4% | 97.5% | 83.8% | 36.2%
4 | C[C@]1(O)C[C@@H](c2nc(-c3ccc4ccc(-c5ccccc5)nc4c3)c3c(N)nccn32)C1 + C=C(c1ccc(C(=O)O)cc1)c1cc2c(cc1C)C(C)(C)CCC2(C)C [Bexarotene] (first compound 0.4 µM, partner dose 2 µM) | 65.6% | 93.9% | 122% | 37.6% | 62.2% | 46.6% | 71.8% | 332% | 57% | 218%
5 | NC(=O)c1ccc(N(C(N)=O)c2c(F)cccc2F)nc1-c1ccc(F)cc1F + C[C@]1(c2nc3c(C(N)=O)cccc3[nH]2)CCCN1 [Veliparib] (first compound 0.4 µM, partner dose 1.4 µM) | 37.6% | 82.6% | 97.4% | 61.8% | 207% | 84.8% | 107% | 114% | 73.3% | 39.1%
6 | CN(c1ncccc1CNc1nc(Nc2ccc3c(c2)CC(=O)N3)ncc1C(F)(F)F)S(C)(=O)=O + Clc1ccc(Nc2nnc(Cc3ccncc3)c3ccccc23)cc1 [vatalanib] (first compound 0.08 µM, partner dose 2 µM) | 189% | 153% | 64.7% | 19.7% | 247% | 95.9% | 122% | 327% | 115% | 72.9%
7 | CCCCCCCCc1ccc(CCC(N)(CO)CO)cc1 [fingolimod] + Nc1cccc2c1CN(C1CCC(=O)NC1=O)C2=O [lenalidomide] (first compound 2 µM, partner dose 1 µM) | 128% | 89.9% | 236% | 104% | 56.4% | 90.7% | 123% | 93.5% | 159% | 220%
8 | Cn1cnc2c(F)c(Nc3ccc(Br)cc3Cl)c(C(=O)NOCCO)cc21 [selumetinib] + NC(=O)c1ccc(N(C(N)=O)c2c(F)cccc2F)nc1-c1ccc(F)cc1F [VX702] (first compound 0.015 µM, partner dose 0.4 µM) | 167% | 65.6% | 69.2% | 53.9% | 150% | 90.9% | 81.7% | 177% | 97.4% | 131%
9 | C[C@@H](N)c1ccc(C(=O)Nc2ccnc3[nH]ccc23)cc1 + Cc1nc(Nc2ncc(C(=O)Nc3c(C)cccc3Cl)s2)cc(N2CCN(CCO)CC2)n1 [dasatanib] (first compound 0.4 µM, partner dose 0.004 µM) | 89.2% | 205% | 66.5% | 75.7% | 71.9% | 84.5% | 263% | 91.4% | 212% | 60.9%
10 | Cn1cnc2c(F)c(Nc3ccc(Br)cc3Cl)c(C(=O)NOCCO)cc21 [selumetinib] + CO[C@H]1C[C@@H]2CC[C@@H](C)[C@@](O)(O2)C(=O)C(=O)N2CCCC[C@H]2C(=O)O[C@H]([C@H](C)C[C@@H]2CC[C@@H](OCCO)[C@H](OC)C2)CC(=O)[C@H](C)/C=C(\C)[C@@H](O)[C@@H](OC)C(=O)[C@H](C)C[C@H](C)/C=C/C=C/C=C/1C [everolimus] (first compound 0.015 µM, partner dose 0.02 µM) | 106% | 182% | 101% | 97.7% | 198% | 75.9% | 160% | 178% | 30.9% | 172%
11 | NC1(c2ccc(-c3nc4ccn5c(=O)[nH]nc5c4cc3-c3ccccc3)cc2)CCC1 + COCC[n+]1c2c(n(Cc3cnccn3)c1C)C(=O)c1ccccc1C2=O [YM155] (first compound 0.4 µM, partner dose 0.0004 µM) | 100% | 106% | 68.5% | 228% | 86.2% | 103% | 65.9% | 150% | 114% | 67.7%
12 | CS(=O)(=O)c1ccc(C(=O)Nc2ccc(Cl)c(-c3ccccn3)c2)c(Cl)c1 [vismodegib] + O=C(O)c1ccc2c(c1)nc(Nc1cccc(Cl)c1)c1ccncc12 [CX4945] (first compound 1 µM, partner dose 0.4 µM) | 110% | 164% | 164% | 62.7% | 187% | 60.2% | 112% | 43.6% | 43% | 67.4%
13 | C[C@]1(O)C[C@@H](c2nc(-c3ccc4ccc(-c5ccccc5)nc4c3)c3c(N)nccn32)C1 + Cn1nnc2c(C(N)=O)ncn2c1=O [temozolomide] (first compound 0.4 µM, partner dose 2 µM) | 37.2% | 107% | 78.3% | 131% | 168% | 93.9% | 131% | 222% | 161% | 29.2%
14 | Cn1cnc2c(F)c(Nc3ccc(Br)cc3Cl)c(C(=O)NOCCO)cc21 [selumetinib] + Cn1c(=O)n(-c2ccc(C(C)(C)C#N)cc2)c2c3cc(-c4cnc5ccccc5c4)ccc3ncc21 [NVP-BEZ235] (first compound 0.015 µM, partner dose 0.004 µM) | 258% | 162% | 105% | 147% | 183% | 259% | 34% | 168% | 58.9% | 86.6%
15 | CC(=O)O[C@@]12CO[C@@H]1C[C@H](O)[C@@]1(C)C(=O)[C@H](O)C3=C(C)[C@@H](OC(=O)[C@H](O)[C@@H](NC(=O)OC(C)(C)C)c4ccccc4)C[C@@](O)([C@@H](OC(=O)c4ccccc4)[C@H]21)C3(C)C [Docetaxel] + CS(=O)(=O)CCNCc1ccc(-c2ccc3ncnc(Nc4ccc(OCc5cccc(F)c5)c(Cl)c4)c3c2)o1 [lapatinib] (first compound 0.0001 µM, partner dose 0.8 µM) | 119% | 541% | 616% | 211% | 564% | 318% | 111% | 447% | 112% | 176%
16 | CCCCCCCCc1ccc(CCC(N)(CO)CO)cc1 [fingolimod] + COCC[n+]1c2c(n(Cc3cnccn3)c1C)C(=O)c1ccccc1C2=O [YM155] (first compound 2 µM, partner dose 0.0004 µM) | 36.2% | 55% | 125% | 81.4% | 78.5% | 45.8% | 135% | 98.8% | 72.7% | 190%
17 | CC(=O)O[C@@]12CO[C@@H]1C[C@H](O)[C@@]1(C)C(=O)[C@H](O)C3=C(C)[C@@H](OC(=O)[C@H](O)[C@@H](NC(=O)OC(C)(C)C)c4ccccc4)C[C@@](O)([C@@H](OC(=O)c4ccccc4)[C@H]21)C3(C)C [Docetaxel] + Clc1ccc(Nc2nnc(Cc3ccncc3)c3ccccc23)cc1 [vatalanib] (first compound 0.0001 µM, partner dose 2 µM) | 151% | 746% | 313% | 186% | 662% | 370% | 196% | 306% | 143% | 248%
18 | NC1(c2ccc(-c3nc4ccn5c(=O)[nH]nc5c4cc3-c3ccccc3)cc2)CCC1 + CC(=O)c1c(C)c2cnc(Nc3ccc(N4CCNCC4)cn3)nc2n(C2CCCC2)c1=O [palbociclib] (first compound 0.4 µM, partner dose 0.04 µM) | 103% | 160% | 106% | 101% | 139% | 47.2% | 126% | 152% | 91.2% | 71.7%
19 | CC(=O)O[C@@]12CO[C@@H]1C[C@H](O)[C@@]1(C)C(=O)[C@H](O)C3=C(C)[C@@H](OC(=O)[C@H](O)[C@@H](NC(=O)OC(C)(C)C)c4ccccc4)C[C@@](O)([C@@H](OC(=O)c4ccccc4)[C@H]21)C3(C)C [Docetaxel] + OCc1c[nH]c2ccccc12 [Indole-3-carbinol] (first compound 0.0001 µM, partner dose 0.8 µM) | 236% | 304% | 167% | 185% | 656% | 496% | 189% | 168% | 144% | 329%
20 | CN(c1ncccc1CNc1nc(Nc2ccc3c(c2)CC(=O)N3)ncc1C(F)(F)F)S(C)(=O)=O + Nc1ccn([C@@H]2O[C@H](CO)[C@@H](O)C2(F)F)c(=O)n1 [gemcitabine] (first compound 0.08 µM, partner dose 0.0004 µM) | 83.7% | 140% | 333% | 220% | 212% | 91.3% | 172% | 90.9% | 40.2% | 129%
21 | C[C@@H](N)c1ccc(C(=O)Nc2ccnc3[nH]ccc23)cc1 + Cc1cc(Nc2cc(N3CCN(C)CC3)nc(/C=C/c3ccccc3)n2)n[nH]1 [ENMD2076] (first compound 0.4 µM, partner dose 0.04 µM) | 265% | 154% | 90.4% | 155% | 156% | 57.7% | 90.8% | 43.1% | 124% | 190%

Single records (already shown). Order of values: cleaved PARP positive nuclei fraction [1] | cleaved PARP positive nuclei fraction [2] | cleaved PARP positive nuclei fraction [3] | cleaved PARP positive nuclei fraction [4] | cleaved PARP positive nuclei fraction [5] | cleaved PARP positive nuclei fraction [6] | cleaved PARP positive nuclei fraction [7] | cleaved PARP positive nuclei fraction [8] | cleaved PARP positive nuclei fraction [9] | cleaved PARP positive nuclei fraction [10]
Cn1cnc2c(F)c(Nc3ccc(Br)cc3Cl)c(C(=O)NOCCO)cc21 [selumetinib] + CO[C@H]1C[C@@H]2CC[C@@H](C)[C@@](O)(O2)C(=O)C(=O)N2CCCC[C@H]2C(=O)O[C@H]([C@H](C)C[C@@H]2CC[C@@H](OCCO)[C@H](OC)C2)CC(=O)[C@H](C)/C=C(\C)[C@@H](O)[C@@H](OC)C(=O)[C@H](C)C[C@H](C)/C=C/C=C/C=C/1C [everolimus] (first compound 0.015 µM, partner dose 0.02 µM) reads 106% | 182% | 101% | 97.7% | 198% | 75.9% | 160% | 178% | 30.9% | 172%
CN(c1ncccc1CNc1nc(Nc2ccc3c(c2)CC(=O)N3)ncc1C(F)(F)F)S(C)(=O)=O + Nc1ccn([C@@H]2O[C@H](CO)[C@@H](O)C2(F)F)c(=O)n1 [gemcitabine] (first compound 0.08 µM, partner dose 0.0004 µM) reads 83.7% | 140% | 333% | 220% | 212% | 91.3% | 172% | 90.9% | 40.2% | 129%
